± gives the standard deviation of the averaged measurements. The entries are a selection whose mix differs from that of the whole data set.
Compound: Nc1ncnc2c1ncn2[C@@H]1O[C@H](COP(=O)(O)OP(=O)(O)NP(=O)(O)O)[C@@H](O)[C@H]1O [adenylyl imidodiphosphate]
Experiment: NP40-soluble protein abundance relative to vehicle (solubility fold change) (ratio); higher = more soluble protein in presence of AMP-PNP
Method in brief: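 Data come from three independent experiments in which Dounce-homogenised Jurkat crude lysate was treated at eight concentrations from 0.1 to 10 mM. Treatment ran 10 min at room temperature and then 3 min at 37 °C, after which 0.8% NP40 and benzonase were added for 60 min at 4 °C before ultracentrifugation. The supernatant underwent TMT labelling and LC-MS/MS, and vsn-normalised intensities were expressed as fold change against the detergent-processed vehicle in each replicate.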

Protein sequences, listed by entry. Tags and fused reporters are not part of them. Lines headed by an entry give the natural chain unless they say otherwise; changes in a name come on top.
UniProt Q96EB6: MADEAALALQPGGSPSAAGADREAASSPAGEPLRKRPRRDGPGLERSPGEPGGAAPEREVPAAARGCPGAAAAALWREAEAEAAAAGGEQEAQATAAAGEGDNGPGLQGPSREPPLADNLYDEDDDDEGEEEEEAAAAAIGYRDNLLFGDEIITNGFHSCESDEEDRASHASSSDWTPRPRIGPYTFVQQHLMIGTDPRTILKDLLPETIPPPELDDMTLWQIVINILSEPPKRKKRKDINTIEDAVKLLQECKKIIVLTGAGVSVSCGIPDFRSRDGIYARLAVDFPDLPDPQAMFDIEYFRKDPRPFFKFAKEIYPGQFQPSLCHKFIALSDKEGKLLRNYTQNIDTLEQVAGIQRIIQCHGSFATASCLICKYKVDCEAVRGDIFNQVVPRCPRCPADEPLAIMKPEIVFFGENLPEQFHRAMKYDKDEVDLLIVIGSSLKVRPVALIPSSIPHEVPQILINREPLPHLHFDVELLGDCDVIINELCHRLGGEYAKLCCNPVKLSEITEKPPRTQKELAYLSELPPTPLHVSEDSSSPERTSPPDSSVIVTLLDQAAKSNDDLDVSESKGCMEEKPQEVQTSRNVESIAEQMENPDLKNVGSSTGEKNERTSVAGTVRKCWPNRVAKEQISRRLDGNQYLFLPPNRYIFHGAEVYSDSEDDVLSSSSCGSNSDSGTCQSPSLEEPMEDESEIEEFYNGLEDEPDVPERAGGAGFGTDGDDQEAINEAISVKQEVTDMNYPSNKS
UniProt Q96D71: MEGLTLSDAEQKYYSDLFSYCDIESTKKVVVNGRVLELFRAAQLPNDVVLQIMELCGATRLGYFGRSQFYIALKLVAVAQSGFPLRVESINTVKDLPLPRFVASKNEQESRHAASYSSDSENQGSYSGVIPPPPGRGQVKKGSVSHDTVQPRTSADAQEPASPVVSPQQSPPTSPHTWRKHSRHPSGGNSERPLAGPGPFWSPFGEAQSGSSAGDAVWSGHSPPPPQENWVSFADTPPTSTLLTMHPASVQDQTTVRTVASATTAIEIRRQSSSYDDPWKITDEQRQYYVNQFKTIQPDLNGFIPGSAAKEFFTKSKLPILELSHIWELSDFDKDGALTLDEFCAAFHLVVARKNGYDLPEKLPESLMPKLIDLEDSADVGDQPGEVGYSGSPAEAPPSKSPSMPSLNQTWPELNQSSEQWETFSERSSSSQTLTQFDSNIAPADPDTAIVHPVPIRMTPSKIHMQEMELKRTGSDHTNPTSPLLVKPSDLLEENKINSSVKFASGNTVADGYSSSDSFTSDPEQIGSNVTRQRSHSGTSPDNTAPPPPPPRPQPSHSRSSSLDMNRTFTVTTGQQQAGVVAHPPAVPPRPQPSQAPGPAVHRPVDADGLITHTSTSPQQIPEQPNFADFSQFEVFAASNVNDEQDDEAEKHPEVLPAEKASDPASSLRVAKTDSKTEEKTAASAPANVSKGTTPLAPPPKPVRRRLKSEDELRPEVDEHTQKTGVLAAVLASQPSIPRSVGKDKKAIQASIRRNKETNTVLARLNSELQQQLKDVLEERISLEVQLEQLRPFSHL
UniProt Q96QR8: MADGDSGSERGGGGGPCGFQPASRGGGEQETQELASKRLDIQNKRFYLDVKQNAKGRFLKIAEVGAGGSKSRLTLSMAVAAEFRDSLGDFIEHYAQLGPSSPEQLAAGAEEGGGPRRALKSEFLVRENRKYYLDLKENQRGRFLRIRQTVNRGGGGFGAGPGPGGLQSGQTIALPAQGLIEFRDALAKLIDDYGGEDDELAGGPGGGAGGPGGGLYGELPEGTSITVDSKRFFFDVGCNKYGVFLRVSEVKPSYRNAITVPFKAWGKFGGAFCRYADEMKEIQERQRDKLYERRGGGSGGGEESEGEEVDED
UniProt Q93100: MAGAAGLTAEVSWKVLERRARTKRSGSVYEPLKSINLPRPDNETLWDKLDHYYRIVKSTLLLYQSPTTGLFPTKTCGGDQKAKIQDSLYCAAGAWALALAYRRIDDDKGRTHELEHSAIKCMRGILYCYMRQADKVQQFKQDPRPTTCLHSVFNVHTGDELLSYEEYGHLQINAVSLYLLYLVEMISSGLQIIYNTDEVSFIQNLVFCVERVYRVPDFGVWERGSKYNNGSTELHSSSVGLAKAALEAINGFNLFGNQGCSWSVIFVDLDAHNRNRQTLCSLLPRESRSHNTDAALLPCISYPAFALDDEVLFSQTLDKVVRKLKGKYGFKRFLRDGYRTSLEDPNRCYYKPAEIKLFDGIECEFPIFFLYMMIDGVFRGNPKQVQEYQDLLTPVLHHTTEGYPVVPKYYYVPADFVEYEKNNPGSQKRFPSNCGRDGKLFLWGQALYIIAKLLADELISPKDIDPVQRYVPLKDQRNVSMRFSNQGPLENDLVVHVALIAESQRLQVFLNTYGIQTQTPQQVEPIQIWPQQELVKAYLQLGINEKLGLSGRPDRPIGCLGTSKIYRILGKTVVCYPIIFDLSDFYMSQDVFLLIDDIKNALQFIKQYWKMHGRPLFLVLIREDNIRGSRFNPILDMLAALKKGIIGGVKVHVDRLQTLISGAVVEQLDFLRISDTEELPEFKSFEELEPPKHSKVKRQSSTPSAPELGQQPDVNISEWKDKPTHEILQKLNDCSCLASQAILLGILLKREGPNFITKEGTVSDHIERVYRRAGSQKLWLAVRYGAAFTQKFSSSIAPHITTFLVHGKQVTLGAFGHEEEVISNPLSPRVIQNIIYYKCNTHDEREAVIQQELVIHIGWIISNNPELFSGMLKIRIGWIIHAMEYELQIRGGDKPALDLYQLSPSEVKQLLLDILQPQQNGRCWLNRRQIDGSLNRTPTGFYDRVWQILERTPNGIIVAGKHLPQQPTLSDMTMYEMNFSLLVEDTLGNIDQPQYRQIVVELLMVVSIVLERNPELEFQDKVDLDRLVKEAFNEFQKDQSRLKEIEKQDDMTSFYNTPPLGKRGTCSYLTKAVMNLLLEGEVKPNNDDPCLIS
UniProt Q96N66: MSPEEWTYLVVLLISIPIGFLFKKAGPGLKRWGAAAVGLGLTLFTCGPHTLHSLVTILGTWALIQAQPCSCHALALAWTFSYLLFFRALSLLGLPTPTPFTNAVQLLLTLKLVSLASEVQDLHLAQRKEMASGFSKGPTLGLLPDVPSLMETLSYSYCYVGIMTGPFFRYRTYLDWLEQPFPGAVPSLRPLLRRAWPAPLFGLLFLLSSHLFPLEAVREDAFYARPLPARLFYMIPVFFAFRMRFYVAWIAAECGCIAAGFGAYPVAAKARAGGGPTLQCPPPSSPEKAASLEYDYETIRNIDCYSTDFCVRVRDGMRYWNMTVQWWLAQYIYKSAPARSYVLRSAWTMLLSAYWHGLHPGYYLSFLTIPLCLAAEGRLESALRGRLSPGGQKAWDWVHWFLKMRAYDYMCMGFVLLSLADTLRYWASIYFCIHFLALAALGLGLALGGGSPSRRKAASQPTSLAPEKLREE
UniProt Q96GG9: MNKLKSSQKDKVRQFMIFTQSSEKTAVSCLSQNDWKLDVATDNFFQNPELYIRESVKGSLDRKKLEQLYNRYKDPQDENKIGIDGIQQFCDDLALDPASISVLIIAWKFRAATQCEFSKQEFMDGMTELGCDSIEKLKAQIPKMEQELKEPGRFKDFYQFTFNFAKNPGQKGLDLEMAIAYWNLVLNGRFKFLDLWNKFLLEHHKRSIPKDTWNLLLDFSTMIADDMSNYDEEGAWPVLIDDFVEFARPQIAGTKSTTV
UniProt Q969S9: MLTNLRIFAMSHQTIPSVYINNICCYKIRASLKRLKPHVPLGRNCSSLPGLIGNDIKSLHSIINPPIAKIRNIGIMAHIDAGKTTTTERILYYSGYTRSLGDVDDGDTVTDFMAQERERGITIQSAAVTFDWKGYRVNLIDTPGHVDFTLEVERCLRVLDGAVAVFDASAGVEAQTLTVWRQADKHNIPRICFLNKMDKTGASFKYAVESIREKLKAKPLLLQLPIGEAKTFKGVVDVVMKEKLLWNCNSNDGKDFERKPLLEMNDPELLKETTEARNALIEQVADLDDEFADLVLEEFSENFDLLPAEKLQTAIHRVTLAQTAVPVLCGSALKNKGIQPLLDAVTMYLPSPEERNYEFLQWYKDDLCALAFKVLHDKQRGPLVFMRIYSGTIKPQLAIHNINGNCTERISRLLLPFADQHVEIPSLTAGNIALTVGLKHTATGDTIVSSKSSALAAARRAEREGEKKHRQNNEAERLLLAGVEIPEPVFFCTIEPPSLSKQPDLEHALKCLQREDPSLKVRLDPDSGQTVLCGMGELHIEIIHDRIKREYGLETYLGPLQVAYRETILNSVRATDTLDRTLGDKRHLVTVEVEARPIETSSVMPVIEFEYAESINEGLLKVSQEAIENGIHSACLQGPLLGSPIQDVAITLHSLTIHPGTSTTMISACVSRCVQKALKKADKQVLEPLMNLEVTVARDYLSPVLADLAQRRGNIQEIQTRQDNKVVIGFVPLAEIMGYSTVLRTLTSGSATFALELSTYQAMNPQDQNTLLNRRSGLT
UniProt Q96FS4: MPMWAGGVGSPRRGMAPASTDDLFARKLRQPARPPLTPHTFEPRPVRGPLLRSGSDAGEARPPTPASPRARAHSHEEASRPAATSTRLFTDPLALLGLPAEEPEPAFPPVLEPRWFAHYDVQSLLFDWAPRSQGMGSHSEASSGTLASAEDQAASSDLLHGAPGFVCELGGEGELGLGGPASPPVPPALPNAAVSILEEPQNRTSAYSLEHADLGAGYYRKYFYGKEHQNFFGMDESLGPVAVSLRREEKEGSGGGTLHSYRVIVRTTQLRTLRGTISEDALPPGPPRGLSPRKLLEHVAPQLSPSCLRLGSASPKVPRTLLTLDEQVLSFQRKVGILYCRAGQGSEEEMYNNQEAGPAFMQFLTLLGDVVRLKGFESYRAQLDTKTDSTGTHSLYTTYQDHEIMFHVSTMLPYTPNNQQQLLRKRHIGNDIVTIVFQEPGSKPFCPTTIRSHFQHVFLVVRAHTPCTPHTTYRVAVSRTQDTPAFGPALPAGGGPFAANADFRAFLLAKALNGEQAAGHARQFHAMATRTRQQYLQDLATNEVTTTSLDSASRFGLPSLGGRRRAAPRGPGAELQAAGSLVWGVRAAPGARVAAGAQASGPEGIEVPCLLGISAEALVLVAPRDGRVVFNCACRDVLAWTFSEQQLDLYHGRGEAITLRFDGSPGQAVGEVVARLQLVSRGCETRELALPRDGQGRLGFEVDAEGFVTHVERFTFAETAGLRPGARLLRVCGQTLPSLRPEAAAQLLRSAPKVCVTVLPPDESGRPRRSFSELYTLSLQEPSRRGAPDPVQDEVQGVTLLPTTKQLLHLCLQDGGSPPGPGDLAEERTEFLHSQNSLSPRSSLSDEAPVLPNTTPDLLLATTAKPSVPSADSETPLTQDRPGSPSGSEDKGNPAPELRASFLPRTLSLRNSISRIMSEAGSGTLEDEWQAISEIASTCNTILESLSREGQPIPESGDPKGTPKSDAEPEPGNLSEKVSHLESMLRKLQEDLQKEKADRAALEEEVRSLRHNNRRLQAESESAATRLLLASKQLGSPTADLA
UniProt Q96IZ6: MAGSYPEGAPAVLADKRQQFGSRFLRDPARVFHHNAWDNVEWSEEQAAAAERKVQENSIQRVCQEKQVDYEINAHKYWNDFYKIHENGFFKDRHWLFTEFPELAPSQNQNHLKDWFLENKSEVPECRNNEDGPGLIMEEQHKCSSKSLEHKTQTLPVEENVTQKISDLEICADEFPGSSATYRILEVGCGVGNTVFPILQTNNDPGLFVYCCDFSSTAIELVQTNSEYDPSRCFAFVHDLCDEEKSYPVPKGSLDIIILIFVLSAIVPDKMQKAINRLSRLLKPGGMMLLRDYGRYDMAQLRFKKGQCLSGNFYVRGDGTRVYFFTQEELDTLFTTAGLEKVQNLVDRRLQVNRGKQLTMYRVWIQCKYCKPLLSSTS
UniProt Q96BN2: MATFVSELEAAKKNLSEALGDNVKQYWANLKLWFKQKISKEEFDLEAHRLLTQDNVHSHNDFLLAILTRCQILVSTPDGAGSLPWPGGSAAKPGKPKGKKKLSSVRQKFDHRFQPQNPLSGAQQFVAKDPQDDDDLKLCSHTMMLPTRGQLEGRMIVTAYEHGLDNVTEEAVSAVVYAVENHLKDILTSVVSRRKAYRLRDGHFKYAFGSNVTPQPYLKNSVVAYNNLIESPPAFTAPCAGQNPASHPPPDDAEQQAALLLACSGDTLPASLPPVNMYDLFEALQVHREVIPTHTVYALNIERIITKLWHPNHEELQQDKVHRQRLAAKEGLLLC
UniProt Q96F63: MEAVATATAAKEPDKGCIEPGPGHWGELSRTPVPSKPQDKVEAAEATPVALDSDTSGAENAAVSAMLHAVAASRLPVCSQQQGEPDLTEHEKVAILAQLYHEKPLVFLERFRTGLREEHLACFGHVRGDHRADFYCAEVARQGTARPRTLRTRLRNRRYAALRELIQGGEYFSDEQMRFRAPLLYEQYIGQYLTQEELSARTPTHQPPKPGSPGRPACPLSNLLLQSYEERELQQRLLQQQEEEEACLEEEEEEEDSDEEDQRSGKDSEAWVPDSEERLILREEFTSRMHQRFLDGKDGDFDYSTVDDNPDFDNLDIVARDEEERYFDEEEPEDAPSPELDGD

Row | Target | NP40-soluble protein abundance (concentration: 1mM) | NP40-soluble protein abundance (concentration: 2mM) | NP40-soluble protein abundance (concentration: 4mM) | NP40-soluble protein abundance (concentration: 6mM) | NP40-soluble protein abundance (concentration: 8mM) | NP40-soluble protein abundance (concentration: 10mM)
1 | Sirt1 (UniProt Q96EB6) | 1.01 ± 0.031 | 1.04 ± 0.02 | 1.01 ± 0.024 | 1 ± 0.021 | 0.952 ± 0.013 | 0.979 ± 0.02
2 | TOE1 (UniProt Q96GM8) | 1.02 ± 0.015 | 0.971 ± 0.12 | 1.03 ± 0.048 | 1.02 ± 0.041 | 1.1 ± 0.064 | 1.15 ± 0.19
3 | SMARCE1 (UniProt Q969G3) | 1.01 ± 0.019 | 1.13 ± 0.12 | 1.07 ± 0.072 | 1.23 ± 0.088 | 1.16 ± 0.08 | 1.17 ± 0.084
4 | UniProt Q96QT6 and related entries | 0.994 ± 0.022 | 1.0145 ± 0.00096 | 1.002 ± 0.0092 | 1.027 ± 0.0029 | 1.05 ± 0.047 | 1.07 ± 0.043
5 | UniProt Q96D71 and related entries | 1 ± 0.022 | 1.03 ± 0.041 | 1.02 ± 0.025 | 1.05 ± 0.042 | 1.05 ± 0.04 | 1.09 ± 0.043
6 | PURB (UniProt Q96QR8) | 1 ± 0.019 | 0.996 ± 0.057 | 1.04 ± 0.029 | 1.04 ± 0.045 | 1.042 ± 0.01 | 1.08 ± 0.055
7 | C8orf76 (UniProt Q96K31) | 1.01 ± 0.015 | 1 ± 0.014 | 0.975 ± 0.026 | 0.974 ± 0.041 | 0.983 ± 0.024 | 0.986 ± 0.017
8 | UniProt Q93100 and related entries | 0.963 ± 0.032 | 0.884 ± 0.12 | 0.938 ± 0.037 | 0.858 ± 0.082 | 0.882 ± 0.092 | 0.846 ± 0.13
9 | UniProt Q96N66 and related entries | 0.964 ± 0.022 | 0.908 ± 0.071 | 0.968 ± 0.026 | 0.964 ± 0.049 | 1 ± 0.023 | 0.939 ± 0.042
10 | THOC3 (UniProt Q96J01) | 1.07 ± 0.069 | 1.1 ± 0.075 | 1.17 ± 0.15 | 1.24 ± 0.16 | 1.3 ± 0.23 | 1.34 ± 0.27
11 | DCUN1D1 (UniProt Q96GG9) | 0.996 ± 0.02 | 0.99 ± 0.034 | 0.999 ± 0.031 | 1.03 ± 0.0087 | 1.01 ± 0.015 | 1 ± 0.015
12 | PAWR (UniProt Q96IZ0) | 1.006 ± 0.0082 | 1.07 ± 0.074 | 0.97 ± 0.034 | 0.991 ± 0.018 | 0.966 ± 0.011 | 0.971 ± 0.041
13 | UniProt Q969S9 and related entries | 0.991 ± 0.033 | 0.967 ± 0.029 | 1.01 ± 0.038 | 0.988 ± 0.012 | 0.989 ± 0.011 | 0.951 ± 0.012
14 | ATG4C (UniProt Q96DT6) | 0.992 ± 0.074 | 0.965 ± 0.089 | 1.03 ± 0.12 | 0.976 ± 0.029 | 1.01 ± 0.065 | 0.996 ± 0.039
15 | UniProt Q96IX5 | 1 ± 0.019 | 1.06 ± 0.081 | 1.03 ± 0.043 | 1.09 ± 0.038 | 1.141 ± 0.006 | 1.14 ± 0.035
16 | SIPA1 (UniProt Q96FS4) | 1.01 ± 0.037 | 1.013 ± 0.003 | 1.03 ± 0.025 | 1.05 ± 0.029 | 1.03 ± 0.036 | 1.04 ± 0.02
17 | UniProt Q96ER3 and related entries | 1.03 ± 0.048 | 1.01 ± 0.034 | 1 ± 0.042 | 0.9542 ± 0.0059 | 0.9253 ± 0.0025 | 0.941 ± 0.032

Random excerpt: 2 records from the list, in no set order.
Row | Target | NP40-soluble protein abundance (concentration: 1mM) | NP40-soluble protein abundance (concentration: 2mM) | NP40-soluble protein abundance (concentration: 4mM) | NP40-soluble protein abundance (concentration: 6mM) | NP40-soluble protein abundance (concentration: 8mM) | NP40-soluble protein abundance (concentration: 10mM)
14 | ATG4C (UniProt Q96DT6) | 0.992 ± 0.074 | 0.965 ± 0.089 | 1.03 ± 0.12 | 0.976 ± 0.029 | 1.01 ± 0.065 | 0.996 ± 0.039
8 | UniProt Q93100 and related entries | 0.963 ± 0.032 | 0.884 ± 0.12 | 0.938 ± 0.037 | 0.858 ± 0.082 | 0.882 ± 0.092 | 0.846 ± 0.13

Further entries follow:

Row | Target | NP40-soluble protein abundance (concentration: 1mM) | NP40-soluble protein abundance (concentration: 2mM) | NP40-soluble protein abundance (concentration: 4mM) | NP40-soluble protein abundance (concentration: 6mM) | NP40-soluble protein abundance (concentration: 8mM) | NP40-soluble protein abundance (concentration: 10mM)
18 | UniProt Q969M3 and related entries | 1.01 ± 0.014 | 1.024 ± 0.0049 | 1.0062 ± 0.00062 | 1 ± 0.021 | 0.998 ± 0.018 | 0.998 ± 0.025
19 | FAM122A (UniProt Q96E09) | 1.023 ± 0.0051 | 1.02 ± 0.047 | 1.0112 ± 0.00041 | 0.9747 ± 0.0087 | 1 ± 0.045 | 0.985 ± 0.039
20 | PUS7 (UniProt Q96PZ0) | 1.03 ± 0.035 | 1.002 ± 0.0077 | 1.04 ± 0.019 | 1.008 ± 0.009 | 1.01 ± 0.015 | 1.01 ± 0.028
21 | ATAD5 (UniProt Q96QE3) | 1.03 ± 0.026 | 1.05 ± 0.046 | 1.08 ± 0.028 | 1.08 ± 0.031 | 1.08 ± 0.022 | 1.12 ± 0.045
22 | UniProt Q96G23 | 1 ± 0.068 | 0.914 ± 0.058 | 0.953 ± 0.021 | 0.914 ± 0.045 | 0.938 ± 0.018 | 0.939 ± 0.015
23 | UniProt Q969T7 and related entries | 0.981 ± 0.054 | 0.95 ± 0.043 | 0.999 ± 0.029 | 0.966 ± 0.025 | 0.96 ± 0.042 | 0.963 ± 0.046
24 | ZNF48 (UniProt Q96MX3) | 1.015 ± 0.0097 | 1.062 ± 0.0052 | 1.05 ± 0.033 | 1.06 ± 0.028 | 1.06 ± 0.017 | 1.12 ± 0.059
25 | ZFR (UniProt Q96KR1) | 1.05 ± 0.086 | 1.06 ± 0.058 | 1.06 ± 0.089 | 1.05 ± 0.14 | 1.05 ± 0.11 | 1.09 ± 0.12
26 | RSPRY1 (UniProt Q96DX4) | 0.999 ± 0.012 | 0.984 ± 0.011 | 0.977 ± 0.025 | 0.985 ± 0.04 | 0.985 ± 0.022 | 1 ± 0.04
27 | METTL2A (UniProt Q96IZ6) | 0.9933 ± 0.0023 | 1 ± 0.0024 | 0.974 ± 0.014 | 0.9925 ± 0.0071 | 0.99527 ± 0.00081 | 0.978 ± 0.026
28 | UniProt Q96BN2 | 1.04 ± 0.033 | 1.04 ± 0.087 | 1.03 ± 0.093 | 1.08 ± 0.055 | 1.06 ± 0.051 | 1.07 ± 0.12
29 | UniProt Q969X5 and related entries | 0.93 ± 0.054 | 0.829 ± 0.078 | 0.87 ± 0.045 | 0.915 ± 0.081 | 0.935 ± 0.036 | 0.903 ± 0.041
30 | CCDC47 (UniProt Q96A33) | 1.04 ± 0.03 | 1.01 ± 0.019 | 1.02 ± 0.041 | 1.02 ± 0.027 | 1.04 ± 0.049 | 1.02 ± 0.044
31 | RILPL2 (UniProt Q969X0) | 0.9862 ± 0.0081 | 0.982 ± 0.046 | 0.97 ± 0.04 | 0.948 ± 0.026 | 0.945 ± 0.026 | 0.943 ± 0.034
32 | UniProt Q969P0 and related entries | 0.984 ± 0.041 | 0.984 ± 0.032 | 1 ± 0.034 | 1.03 ± 0.059 | 1.03 ± 0.04 | 1.04 ± 0.028
33 | CCDC97 (UniProt Q96F63) | 0.981 ± 0.06 | 1.04 ± 0.043 | 0.978 ± 0.076 | 1 ± 0.052 | 0.984 ± 0.064 | 0.972 ± 0.027
34 | UniProt Q96D96 and related entries | 1.02 ± 0.053 | 0.991 ± 0.027 | 1.04 ± 0.052 | 1.03 ± 0.067 | 1.03 ± 0.079 | 1.04 ± 0.12
